Data published in article PMC3219604.
Numbering of substitutions follows the chain as printed. For at least one entry, the source does not settle the construct or the ends of the probe. For some of these results: The comparison behind a weaker result is the experiment's own reference, which may not be listed here. Where a protein sequence is shown, tags need not be part of it. For some of these results: Where cells or extracts were used, other partners may take part.

Legend:
Test in all cases: EMSA
[1] = biological target: T1, IS2 OrfAB, refolded native (UniProt P51026); conditions: 6.02 ug refolded protein, 2 nM DNA, bound very poorly; 20 mM Tris-Cl pH 8.0, 1 mM EDTA, 5 ug/mL calf thymus DNA, 10 nM DNA, 0.11-0.13 uM protein, 30 min at …; gels at 4 C; recombinant protein; label: 5'-32P upper strand
T1 sequence (looked up, limits assumed): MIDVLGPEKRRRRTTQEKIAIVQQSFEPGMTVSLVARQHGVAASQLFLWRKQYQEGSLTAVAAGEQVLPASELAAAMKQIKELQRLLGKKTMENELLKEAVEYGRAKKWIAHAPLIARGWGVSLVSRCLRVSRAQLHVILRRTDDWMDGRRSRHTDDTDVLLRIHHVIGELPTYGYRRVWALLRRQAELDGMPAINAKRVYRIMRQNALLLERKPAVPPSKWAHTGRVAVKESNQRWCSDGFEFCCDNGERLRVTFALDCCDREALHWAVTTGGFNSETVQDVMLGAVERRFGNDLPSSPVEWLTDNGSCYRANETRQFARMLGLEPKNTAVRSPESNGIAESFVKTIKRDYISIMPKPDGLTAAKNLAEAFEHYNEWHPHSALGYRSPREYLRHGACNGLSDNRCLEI

[2] = biological target: T2, IS2 OrfAB-GFP, IMPACT purified (pTW2orfAB::GFP) (UniProt P51026); conditions: 0.46 uM protein, 2 nM DNA, bound poorly; 20 mM Tris-Cl pH 8.0, 1 mM EDTA, 5 ug/mL calf thymus DNA, 10 nM DNA, 0.11-0.13 uM protein, 30 min at 20 C; gels at 4 C; recombinant protein; protein details: C-terminal GFPuv, chitin/intein purification; label: 5'-32P upper strand
T2 sequence (looked up, limits assumed): T1 sequence (looked up, limits assumed)

[3] = biological target: T3, IS2 OrfAB-GFP, crude extract (pTW2orfAB::GFP) (UniProt P51026); conditions: ~80 nM protein, 2 nM DNA; 20 mM Tris-Cl pH 8.0, 1 mM EDTA, 5 ug/mL calf thymus DNA, 10 nM DNA, 0.11-0.13 uM protein, 30 min at 20 C; gels at 4 C; protein in a lysate after overexpression; protein details: C-terminal GFPuv, pTWIN2 intein/chitin tag; label: 5'-32P upper strand
T3 sequence (looked up, limits assumed): T1 sequence (looked up, limits assumed)

[4] = biological target: T4, OrfAB-GFP GMF96 W237R W252R (UniProt P51026); conditions: 12% native PAGE; 20 mM Tris-Cl pH 8.0, 1 mM EDTA, 5 ug/mL calf thymus DNA, 10 nM DNA, 0.11-0.13 uM protein, 30 min at 20 C; gels at 4 C; recombinant protein; protein details: 6xHis, C-terminal GFPuv; label: 5'-32P upper strand
T4 sequence (looked up, limits assumed): T1 sequence (looked up, limits assumed) with W222R, W237R

GCTGACTTGACGGGACGGGGATCCTTAAGTGATAACAGATGTCTGGAAATATAGGGGCAAATCCAATCGACCTGCAGGCATATAAGC (double strand) [IRR 87-mer]
binding result [1]: binds more weakly
binding result [2]: binds more weakly
binding result [3]: binds
binding signal (binding score (0-5)) [4]: 5
